Values quoted from earlier work as cited in publication PMC7408396, “IPEC-J2 rMdr1a, a New Cell Line with Functional Expression of Rat P-glycoprotein Encoded by Rat Mdr1a for Drug Screening Purposes” (Pharmaceutics, 2020).

Protein sequences, listed by entry. Tags and fused reporters are not part of them.
UniProt P08183, whole entry: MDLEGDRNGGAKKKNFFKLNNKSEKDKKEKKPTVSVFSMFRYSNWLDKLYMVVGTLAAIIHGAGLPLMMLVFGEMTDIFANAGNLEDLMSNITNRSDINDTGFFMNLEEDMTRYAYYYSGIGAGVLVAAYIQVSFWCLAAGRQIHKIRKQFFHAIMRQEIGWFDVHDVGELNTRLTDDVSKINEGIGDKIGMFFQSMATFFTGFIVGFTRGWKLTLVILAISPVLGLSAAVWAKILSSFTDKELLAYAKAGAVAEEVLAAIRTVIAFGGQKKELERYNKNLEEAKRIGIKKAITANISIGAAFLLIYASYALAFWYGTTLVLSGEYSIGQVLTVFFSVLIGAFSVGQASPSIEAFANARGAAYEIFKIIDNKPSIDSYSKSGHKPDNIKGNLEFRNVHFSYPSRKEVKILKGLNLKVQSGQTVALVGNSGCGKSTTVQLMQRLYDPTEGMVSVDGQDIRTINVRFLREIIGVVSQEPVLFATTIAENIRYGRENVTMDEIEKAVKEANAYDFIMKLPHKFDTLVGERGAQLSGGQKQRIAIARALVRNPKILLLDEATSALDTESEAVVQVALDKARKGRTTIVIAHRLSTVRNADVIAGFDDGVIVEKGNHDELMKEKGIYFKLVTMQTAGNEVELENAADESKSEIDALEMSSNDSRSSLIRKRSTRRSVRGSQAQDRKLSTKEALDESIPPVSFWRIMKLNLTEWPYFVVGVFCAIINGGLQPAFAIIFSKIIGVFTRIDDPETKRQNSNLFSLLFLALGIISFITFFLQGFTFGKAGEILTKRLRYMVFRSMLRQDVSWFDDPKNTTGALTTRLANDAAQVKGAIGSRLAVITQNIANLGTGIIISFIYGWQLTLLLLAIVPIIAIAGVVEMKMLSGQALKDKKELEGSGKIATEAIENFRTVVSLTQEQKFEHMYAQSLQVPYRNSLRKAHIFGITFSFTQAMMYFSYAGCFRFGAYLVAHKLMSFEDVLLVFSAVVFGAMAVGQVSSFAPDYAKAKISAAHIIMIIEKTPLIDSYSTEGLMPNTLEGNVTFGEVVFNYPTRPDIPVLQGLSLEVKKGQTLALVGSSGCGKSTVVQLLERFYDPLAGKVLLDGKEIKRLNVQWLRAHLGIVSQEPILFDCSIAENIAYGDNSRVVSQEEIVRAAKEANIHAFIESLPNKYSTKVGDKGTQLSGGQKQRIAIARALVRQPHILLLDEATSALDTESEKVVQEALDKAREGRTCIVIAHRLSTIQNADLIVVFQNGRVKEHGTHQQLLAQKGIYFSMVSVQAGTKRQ

Target: human P-gp (Homo sapiens, UniProt P08183)
Details: IPEC-J2 MDR1 cells overexpressing human P-gp; cited from earlier work

**Q.** Which P-gp substrate identification does the source give for `CC(C)NCC(O)COc1ccc(CC(N)=O)cc1` (stereo not shown) [atenolol] here?
**A.** P-gp substrates
